Data: publication PMC9699620
These are yes or no findings as the source states them, for the method shown. Binding seen in cells or lysates may run through a third protein. A yes stands for co-enrichment or nearness to the bait. Other partners may have been found.

The chains behind the UniProt entries cited, without tags or fusion partners.
UniProt O43150: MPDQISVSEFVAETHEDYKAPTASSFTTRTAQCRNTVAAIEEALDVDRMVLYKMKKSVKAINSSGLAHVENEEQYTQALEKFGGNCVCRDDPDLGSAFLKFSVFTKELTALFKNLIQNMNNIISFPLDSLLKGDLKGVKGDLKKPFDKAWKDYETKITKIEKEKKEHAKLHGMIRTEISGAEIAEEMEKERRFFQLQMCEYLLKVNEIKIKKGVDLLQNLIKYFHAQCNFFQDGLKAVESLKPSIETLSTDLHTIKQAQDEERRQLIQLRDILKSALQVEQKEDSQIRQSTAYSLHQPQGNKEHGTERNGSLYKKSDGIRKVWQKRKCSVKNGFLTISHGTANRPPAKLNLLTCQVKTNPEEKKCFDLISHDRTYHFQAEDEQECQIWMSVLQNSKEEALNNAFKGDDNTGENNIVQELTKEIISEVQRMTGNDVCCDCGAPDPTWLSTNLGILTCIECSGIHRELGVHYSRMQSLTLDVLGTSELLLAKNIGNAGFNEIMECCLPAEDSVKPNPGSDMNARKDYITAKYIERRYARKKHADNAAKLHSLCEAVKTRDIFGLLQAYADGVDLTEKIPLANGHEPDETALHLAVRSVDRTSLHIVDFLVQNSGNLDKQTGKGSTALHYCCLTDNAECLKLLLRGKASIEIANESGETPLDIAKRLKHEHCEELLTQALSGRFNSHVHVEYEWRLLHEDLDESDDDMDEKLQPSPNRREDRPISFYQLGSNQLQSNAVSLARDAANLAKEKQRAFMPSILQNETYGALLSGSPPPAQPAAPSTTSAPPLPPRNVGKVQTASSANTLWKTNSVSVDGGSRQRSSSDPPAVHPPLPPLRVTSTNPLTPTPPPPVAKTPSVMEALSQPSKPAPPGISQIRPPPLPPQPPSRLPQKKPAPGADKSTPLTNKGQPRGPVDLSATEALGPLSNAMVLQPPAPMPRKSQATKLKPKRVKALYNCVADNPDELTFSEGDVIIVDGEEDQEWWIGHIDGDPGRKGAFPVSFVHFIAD
UniProt O75165: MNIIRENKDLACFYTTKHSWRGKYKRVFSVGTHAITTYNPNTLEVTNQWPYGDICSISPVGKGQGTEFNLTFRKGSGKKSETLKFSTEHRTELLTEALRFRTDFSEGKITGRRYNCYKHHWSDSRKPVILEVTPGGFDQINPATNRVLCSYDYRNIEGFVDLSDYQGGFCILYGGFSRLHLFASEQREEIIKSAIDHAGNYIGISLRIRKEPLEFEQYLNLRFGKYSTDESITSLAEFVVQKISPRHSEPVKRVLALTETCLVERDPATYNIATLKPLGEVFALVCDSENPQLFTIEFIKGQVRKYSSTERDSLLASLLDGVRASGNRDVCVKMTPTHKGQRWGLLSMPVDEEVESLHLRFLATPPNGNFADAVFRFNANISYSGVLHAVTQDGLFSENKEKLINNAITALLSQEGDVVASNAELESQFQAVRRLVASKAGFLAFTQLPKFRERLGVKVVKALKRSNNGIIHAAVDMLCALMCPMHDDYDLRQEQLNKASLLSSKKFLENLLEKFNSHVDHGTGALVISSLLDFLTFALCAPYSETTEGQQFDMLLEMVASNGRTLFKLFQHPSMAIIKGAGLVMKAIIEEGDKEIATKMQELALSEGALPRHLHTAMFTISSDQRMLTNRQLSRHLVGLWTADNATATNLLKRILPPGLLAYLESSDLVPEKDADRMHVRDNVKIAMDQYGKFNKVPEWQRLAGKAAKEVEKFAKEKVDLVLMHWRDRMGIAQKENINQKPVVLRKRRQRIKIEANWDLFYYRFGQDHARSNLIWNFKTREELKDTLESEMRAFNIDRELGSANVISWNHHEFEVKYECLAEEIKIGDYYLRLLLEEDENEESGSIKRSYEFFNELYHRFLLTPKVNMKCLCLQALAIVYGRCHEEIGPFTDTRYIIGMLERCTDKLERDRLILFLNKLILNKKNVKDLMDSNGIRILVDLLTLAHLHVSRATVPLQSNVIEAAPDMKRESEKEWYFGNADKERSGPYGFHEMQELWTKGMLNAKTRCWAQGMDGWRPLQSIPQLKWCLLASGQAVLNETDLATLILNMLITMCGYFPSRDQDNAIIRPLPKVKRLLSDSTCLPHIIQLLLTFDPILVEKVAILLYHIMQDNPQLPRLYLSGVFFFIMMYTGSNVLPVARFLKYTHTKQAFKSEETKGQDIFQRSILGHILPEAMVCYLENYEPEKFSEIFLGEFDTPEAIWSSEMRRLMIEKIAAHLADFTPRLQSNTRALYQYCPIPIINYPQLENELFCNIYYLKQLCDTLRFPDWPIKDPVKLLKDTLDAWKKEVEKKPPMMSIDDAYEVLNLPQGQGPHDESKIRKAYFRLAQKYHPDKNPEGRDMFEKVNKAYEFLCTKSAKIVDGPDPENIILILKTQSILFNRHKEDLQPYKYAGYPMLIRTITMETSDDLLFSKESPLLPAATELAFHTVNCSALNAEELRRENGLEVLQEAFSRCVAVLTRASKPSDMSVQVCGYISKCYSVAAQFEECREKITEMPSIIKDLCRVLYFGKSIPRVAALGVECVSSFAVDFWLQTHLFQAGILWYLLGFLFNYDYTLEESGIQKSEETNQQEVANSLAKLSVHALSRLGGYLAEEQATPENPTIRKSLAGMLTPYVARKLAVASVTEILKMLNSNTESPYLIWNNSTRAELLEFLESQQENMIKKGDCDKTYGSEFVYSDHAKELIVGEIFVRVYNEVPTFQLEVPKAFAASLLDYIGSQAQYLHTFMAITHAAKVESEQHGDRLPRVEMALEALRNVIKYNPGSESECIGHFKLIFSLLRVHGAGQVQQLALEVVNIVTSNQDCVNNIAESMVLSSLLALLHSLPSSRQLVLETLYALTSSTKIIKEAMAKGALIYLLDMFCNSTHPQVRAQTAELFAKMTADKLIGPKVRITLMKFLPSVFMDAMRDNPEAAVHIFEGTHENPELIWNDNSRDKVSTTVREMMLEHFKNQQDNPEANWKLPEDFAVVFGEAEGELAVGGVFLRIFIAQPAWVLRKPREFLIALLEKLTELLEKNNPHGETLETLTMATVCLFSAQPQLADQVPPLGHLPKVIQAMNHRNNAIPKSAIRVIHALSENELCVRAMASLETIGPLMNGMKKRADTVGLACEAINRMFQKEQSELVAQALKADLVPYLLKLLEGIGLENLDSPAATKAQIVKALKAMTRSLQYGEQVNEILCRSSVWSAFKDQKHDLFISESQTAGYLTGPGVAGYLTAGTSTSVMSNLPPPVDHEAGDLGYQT
UniProt Q9Y3Z3: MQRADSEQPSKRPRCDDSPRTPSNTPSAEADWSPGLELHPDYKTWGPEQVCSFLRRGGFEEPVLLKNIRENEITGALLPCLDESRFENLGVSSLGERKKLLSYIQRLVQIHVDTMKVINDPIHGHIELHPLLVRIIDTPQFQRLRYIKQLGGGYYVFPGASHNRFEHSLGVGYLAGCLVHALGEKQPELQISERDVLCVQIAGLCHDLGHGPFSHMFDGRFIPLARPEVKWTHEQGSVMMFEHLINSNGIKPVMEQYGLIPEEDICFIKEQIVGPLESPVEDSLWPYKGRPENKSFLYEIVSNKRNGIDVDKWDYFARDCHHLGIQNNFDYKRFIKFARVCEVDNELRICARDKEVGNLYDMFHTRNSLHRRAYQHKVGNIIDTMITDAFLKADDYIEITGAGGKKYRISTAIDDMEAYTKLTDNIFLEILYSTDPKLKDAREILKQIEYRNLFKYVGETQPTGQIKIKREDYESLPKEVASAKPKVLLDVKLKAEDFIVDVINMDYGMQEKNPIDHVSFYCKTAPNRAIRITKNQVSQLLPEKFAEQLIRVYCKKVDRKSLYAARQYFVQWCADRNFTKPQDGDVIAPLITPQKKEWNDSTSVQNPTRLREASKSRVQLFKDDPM
UniProt P41091: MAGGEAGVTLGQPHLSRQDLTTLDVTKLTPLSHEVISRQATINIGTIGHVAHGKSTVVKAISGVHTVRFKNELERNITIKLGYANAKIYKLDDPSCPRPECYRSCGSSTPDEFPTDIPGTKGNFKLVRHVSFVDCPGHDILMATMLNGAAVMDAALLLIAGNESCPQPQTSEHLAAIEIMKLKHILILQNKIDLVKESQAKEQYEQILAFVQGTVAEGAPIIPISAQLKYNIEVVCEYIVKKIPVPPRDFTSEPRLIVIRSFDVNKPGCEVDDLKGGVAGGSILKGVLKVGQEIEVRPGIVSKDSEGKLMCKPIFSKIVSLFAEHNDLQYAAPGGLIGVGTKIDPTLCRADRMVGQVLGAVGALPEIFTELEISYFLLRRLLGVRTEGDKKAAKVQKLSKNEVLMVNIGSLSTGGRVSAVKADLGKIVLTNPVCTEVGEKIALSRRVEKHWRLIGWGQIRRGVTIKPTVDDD
UniProt Q96BY6: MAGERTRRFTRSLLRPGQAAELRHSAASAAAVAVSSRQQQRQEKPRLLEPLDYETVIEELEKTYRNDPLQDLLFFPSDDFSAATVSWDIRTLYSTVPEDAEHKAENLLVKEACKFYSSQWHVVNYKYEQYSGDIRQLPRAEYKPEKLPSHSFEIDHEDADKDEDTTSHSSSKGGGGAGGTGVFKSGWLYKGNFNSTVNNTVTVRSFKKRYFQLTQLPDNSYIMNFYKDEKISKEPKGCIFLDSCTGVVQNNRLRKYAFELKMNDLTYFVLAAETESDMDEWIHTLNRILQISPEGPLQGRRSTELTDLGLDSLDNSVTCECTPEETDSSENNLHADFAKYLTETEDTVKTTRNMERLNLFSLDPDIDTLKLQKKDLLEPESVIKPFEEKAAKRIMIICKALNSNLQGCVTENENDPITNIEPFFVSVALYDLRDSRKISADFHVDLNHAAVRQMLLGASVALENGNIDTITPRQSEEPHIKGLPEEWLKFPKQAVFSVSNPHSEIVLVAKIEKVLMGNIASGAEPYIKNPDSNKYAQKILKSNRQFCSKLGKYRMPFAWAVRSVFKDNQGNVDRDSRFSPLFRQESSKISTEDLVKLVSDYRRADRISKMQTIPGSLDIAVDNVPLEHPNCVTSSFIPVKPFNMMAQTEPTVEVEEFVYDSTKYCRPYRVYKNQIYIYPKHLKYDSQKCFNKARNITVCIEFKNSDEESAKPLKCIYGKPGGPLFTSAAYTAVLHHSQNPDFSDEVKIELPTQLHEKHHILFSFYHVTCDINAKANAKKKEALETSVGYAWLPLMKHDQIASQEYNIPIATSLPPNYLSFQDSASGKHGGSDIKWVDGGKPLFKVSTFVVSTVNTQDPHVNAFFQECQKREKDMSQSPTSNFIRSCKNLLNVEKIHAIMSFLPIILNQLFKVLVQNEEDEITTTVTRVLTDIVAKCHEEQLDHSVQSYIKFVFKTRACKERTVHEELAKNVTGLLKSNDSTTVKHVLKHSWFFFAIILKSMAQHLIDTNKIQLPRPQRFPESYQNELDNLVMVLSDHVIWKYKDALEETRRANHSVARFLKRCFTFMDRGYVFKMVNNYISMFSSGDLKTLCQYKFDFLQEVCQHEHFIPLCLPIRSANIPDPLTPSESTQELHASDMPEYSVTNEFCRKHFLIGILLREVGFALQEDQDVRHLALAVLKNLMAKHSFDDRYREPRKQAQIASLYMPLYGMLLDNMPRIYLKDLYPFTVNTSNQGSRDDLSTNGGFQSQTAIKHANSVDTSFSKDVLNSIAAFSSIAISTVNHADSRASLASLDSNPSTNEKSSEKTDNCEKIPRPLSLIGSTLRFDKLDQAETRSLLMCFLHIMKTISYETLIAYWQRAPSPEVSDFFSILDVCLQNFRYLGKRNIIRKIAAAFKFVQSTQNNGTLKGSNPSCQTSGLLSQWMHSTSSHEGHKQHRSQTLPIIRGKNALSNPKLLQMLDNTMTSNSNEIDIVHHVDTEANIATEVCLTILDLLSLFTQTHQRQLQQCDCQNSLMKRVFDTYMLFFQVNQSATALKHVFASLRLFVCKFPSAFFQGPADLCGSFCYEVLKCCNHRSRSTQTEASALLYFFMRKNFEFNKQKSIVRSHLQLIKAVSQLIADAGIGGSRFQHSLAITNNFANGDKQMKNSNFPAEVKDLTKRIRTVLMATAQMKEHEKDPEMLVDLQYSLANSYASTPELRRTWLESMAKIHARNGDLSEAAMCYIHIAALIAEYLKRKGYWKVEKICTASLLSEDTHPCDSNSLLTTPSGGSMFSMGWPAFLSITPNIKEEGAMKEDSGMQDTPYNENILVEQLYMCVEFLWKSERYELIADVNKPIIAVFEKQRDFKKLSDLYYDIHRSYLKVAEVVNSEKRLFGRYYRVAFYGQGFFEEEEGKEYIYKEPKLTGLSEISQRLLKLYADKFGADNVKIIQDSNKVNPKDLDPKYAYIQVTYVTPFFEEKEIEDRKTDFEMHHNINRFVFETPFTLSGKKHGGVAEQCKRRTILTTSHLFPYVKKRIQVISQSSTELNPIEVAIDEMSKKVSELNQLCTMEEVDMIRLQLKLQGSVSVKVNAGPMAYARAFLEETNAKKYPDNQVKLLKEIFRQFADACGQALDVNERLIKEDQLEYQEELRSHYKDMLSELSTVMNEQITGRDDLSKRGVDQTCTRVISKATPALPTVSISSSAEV

B1: FKBP15 (protein, UniProt Q5T1M5 1-1219)
chain: MFGAGDEDDTDFLSPSGGARLASLFGLDQAAAGHGNEFFQYTAPKQPKKGQGTAATGNQATPKTAPATMSTPTILVATAVHAYRYTNGQYVKQGKFGAAVLGNHTAREYRILLYISQQQPVTVARIHVNFELMVRPNNYSTFYDDQRQNWSIMFESEKAAVEFNKQVCIAKCNSTSSLDAVLSQDLIVADGPAVEVGDSLEVAYTGWLFQNHVLGQVFDSTANKDKLLRLKLGSGKVIKGWEDGMLGMKKGGKRLLIVPPACAVGSEGVIGWTQATDSILVFEVEVRRVKFARDSGSDGHSVSSRDSAAPSPIPGADNLSADPVVSPPTSIPFKSGEPALRTKSNSLSEQLAINTSPDAVKAKLISRMAKMGQPMLPILPPQLDSNDSEIEDVNTLQGGGQPVVTPSVQPSLHPAHPALPQMTSQAPQPSVTGLQAPSAALMQVSSLDSHSAVSGNAQSFQPYAGMQAYAYPQASAVTSQLQPVRPLYPAPLSQPPHFQGSGDMASFLMTEARQHNTEIRMAVSKVADKMDHLMTKVEELQKHSAGNSMLIPSMSVTMETSMIMSNIQRIIQENERLKQEILEKSNRIEEQNDKISELIERNQRYVEQSNLMMEKRNNSLQTATENTQARVLHAEQEKAKVTEELAAATAQVSHLQLKMTAHQKKETELQMQLTESLKETDLLRGQLTKVQAKLSELQETSEQAQSKFKSEKQNRKQLELKVTSLEEELTDLRVEKESLEKNLSERKKKSAQERSQAEEEIDEIRKSYQEELDKLRQLLKKTRVSTDQAAAEQLSLVQAELQTQWEAKCEHLLASAKDEHLQQYQEVCAQRDAYQQKLVQLQEKCLALQAQITALTKQNEQHIKELEKNKSQMSGVEAAASDPSEKVKKIMNQVFQSLRREFELEESYNGRTILGTIMNTIKMVTLQLLNQQEQEKEESSSEEEEEKAEERPRRPSQEQSASASSGQPQAPLNRERPESPMVPSEQVVEEAVPLPPQALTTSQDGHRRKGDSEAEALSEIKDGSLPPELSCIPSHRVLGPPTSIPPEPLGPVSMDSECEESLAASPMAAKPDNPSGKVCVREVAPDGPLQESSTRLSLTSDPEEGDPLALGPESPGEPQPPQLKKDDVTSSTGPHKELSSTEAGSTVAGAALRPSHHSQRSSLSGDEEDELFKGATLKALRPKAQPEEEDEDEVSMKGRPPPTPLFGDDDDDDDIDWLG

Columns and labels:
[1] = molecular target: ArfGAP with SH3 Domain, Ankyrin Repeat and PH Domain 2 (ASAP2) (human (endogenous in THP-1)) (UniProt O43150); assay: affinity purification with mass spectrometry; immunoprecipitation with anti-ASAP2 antibody from lysate of 1,25(OH)2D3-stimulated THP-1 M0 macrophages; protein A/G beads, 4 °C; normal IgG as negative control
[2] = molecular target: ArfGAP with SH3 Domain, Ankyrin Repeat and PH Domain 2 (ASAP2) (human (endogenous in THP-1)) (UniProt O43150); assay: affinity purification with mass spectrometry; ASAP2 interactome from lysate of 1,25(OH)2D3-stimulated THP-1 monocytes; protein A/G beads, 4 °C
[3] = molecular target: ArfGAP with SH3 Domain, Ankyrin Repeat and PH Domain 2 (ASAP2) (human (endogenous in THP-1)) (UniProt O43150); assay: affinity purification with mass spectrometry; immunoprecipitation with anti-ASAP2 antibody from lysate of 1,25(OH)2D3-stimulated THP-1 M0 macrophages; protein A/G beads, 4 °C; normal IgG as negative control; remark: listed apart in the source

Molecule | binding [1] | binding [2] | binding [3]
DNAJC13 (from UniProt O75165 1-2243) | binds |  | 
RHOC (from UniProt P08134 1-193) | binds |  | 
SAM and HD domain-containing deoxynucleoside triphosphate triphosphohydrolase 1 (SAMHD1) (from UniProt Q9Y3Z3 1-626) | binds | binds | 
EIF2S3 (from UniProt P41091 1-472) | binds |  | 
DOCK10 (from UniProt Q96BY6 1-2186) | binds |  | 
B1 |  |  | binds
